Experimental data taken from publication doi:10.1101/2020.01.30.927038.

Chains of the proteins cited; added tags and fusions are not shown. Residues count along the entry.
UniProt Q9Y4K0, residues 26-774: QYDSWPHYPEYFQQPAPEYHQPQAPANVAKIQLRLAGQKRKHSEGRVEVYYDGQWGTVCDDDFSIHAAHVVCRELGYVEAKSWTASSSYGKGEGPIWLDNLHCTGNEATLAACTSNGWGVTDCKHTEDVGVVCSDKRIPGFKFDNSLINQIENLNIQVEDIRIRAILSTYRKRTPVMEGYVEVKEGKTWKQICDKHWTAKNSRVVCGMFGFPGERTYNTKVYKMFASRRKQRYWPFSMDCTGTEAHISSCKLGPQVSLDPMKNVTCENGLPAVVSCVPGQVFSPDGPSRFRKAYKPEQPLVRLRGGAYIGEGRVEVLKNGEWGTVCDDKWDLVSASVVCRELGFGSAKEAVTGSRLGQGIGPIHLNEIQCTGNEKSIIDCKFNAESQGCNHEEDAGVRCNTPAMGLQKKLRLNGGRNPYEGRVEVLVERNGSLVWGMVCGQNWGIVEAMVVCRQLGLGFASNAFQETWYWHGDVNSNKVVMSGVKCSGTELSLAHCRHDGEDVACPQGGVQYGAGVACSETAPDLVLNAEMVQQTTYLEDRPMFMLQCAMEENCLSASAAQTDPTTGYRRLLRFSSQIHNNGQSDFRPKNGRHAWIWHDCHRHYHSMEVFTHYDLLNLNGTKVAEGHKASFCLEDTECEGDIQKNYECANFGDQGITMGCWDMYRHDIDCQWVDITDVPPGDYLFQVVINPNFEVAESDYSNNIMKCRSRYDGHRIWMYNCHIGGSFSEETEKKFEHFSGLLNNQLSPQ
UniProt O96019: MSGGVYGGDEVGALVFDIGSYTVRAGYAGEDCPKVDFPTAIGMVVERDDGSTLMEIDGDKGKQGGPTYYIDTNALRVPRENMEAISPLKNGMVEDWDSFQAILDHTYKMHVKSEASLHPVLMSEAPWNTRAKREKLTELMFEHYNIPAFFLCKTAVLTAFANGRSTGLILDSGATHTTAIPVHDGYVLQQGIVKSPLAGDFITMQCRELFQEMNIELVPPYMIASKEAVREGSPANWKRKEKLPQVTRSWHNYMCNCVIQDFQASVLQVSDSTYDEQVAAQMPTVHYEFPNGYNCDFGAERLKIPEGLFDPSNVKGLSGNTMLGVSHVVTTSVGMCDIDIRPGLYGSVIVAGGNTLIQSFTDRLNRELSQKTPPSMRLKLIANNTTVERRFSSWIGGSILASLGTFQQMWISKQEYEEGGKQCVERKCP
UniProt Q9NPF5: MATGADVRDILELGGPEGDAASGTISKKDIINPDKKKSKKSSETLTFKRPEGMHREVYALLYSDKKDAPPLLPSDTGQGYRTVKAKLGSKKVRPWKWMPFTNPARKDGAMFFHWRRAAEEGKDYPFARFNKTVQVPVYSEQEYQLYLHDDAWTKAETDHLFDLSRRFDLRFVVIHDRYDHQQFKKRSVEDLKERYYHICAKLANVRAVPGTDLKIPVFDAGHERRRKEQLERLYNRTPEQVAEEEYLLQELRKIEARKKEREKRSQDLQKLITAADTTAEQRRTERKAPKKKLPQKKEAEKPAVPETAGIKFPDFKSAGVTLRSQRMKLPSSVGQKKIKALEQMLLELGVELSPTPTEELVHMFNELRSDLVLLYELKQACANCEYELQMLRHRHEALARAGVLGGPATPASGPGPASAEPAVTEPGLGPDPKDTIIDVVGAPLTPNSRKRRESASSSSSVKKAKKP
UniProt Q9Y265: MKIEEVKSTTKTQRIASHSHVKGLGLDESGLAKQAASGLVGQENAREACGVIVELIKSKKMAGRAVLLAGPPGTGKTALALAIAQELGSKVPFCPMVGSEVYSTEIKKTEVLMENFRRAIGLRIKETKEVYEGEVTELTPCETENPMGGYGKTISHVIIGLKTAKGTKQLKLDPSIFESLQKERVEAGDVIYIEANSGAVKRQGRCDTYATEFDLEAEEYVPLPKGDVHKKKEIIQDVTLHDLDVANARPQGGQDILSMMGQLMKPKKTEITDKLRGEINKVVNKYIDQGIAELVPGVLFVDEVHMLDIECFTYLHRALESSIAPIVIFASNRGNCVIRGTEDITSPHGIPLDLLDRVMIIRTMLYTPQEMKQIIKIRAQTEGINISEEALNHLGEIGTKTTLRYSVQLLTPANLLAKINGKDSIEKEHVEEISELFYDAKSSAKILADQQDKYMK

Target: LOXL2 (bait of the previously published tandem-affinity purification) (UniProt Q9Y4K0)
Test: affinity purification with mass spectrometry

Row | binding | Substance
1 | binds | BAF53 (from UniProt O96019 1-429)
2 | binds | DMAP1 (from UniProt Q9NPF5 1-467)
3 | binds | RUVBL1 (from UniProt Q9Y265 1-456)

No constants are given. Whether binding was seen depends on the method and setting. In cells and extracts the contact can be indirect. Here binding means that the protein was enriched with, or labelled near, the bait; the list need not be complete.
